No constants are given. Whether binding was seen depends on the method and setting. Binding seen in cells or lysates may run through a third protein. Binding calls can cover weak binding; strength is not graded here.
Assays:
[1] = molecular target: STAT1 truncation mutant, SH2 domain (577-683 aa) (UniProt P42224); test: co-IP; HEK293T cells transfected with tagged TREM2, TRIM21, STAT1 (full length or truncation mutants) or SYK; increasing doses of MYC-TRIM21 in the presence of MG132 in one panel
GST-TREM2 = GST-TREM2 (UniProt Q9NZC2); test: pull-down; GST fusion proteins from E. coli BL21 (DE3), Pierce GST Protein Interaction Pull-Down Kit; the SYK-STAT1 pull-down with or without TREM2
Flag-TREM2 = Flag-TREM2 (UniProt Q9NZC2); test: co-IP; HEK293T cells transfected with tagged TREM2, TRIM21, STAT1 (full length or truncation mutants) or SYK; increasing doses of MYC-TRIM21 in the presence of MG132 in one panel

Chains of the proteins cited; added tags and fusions are not shown. Lines headed by an entry give the natural chain unless they say otherwise; changes in a name come on top. Residues count along the entry.
UniProt P42224: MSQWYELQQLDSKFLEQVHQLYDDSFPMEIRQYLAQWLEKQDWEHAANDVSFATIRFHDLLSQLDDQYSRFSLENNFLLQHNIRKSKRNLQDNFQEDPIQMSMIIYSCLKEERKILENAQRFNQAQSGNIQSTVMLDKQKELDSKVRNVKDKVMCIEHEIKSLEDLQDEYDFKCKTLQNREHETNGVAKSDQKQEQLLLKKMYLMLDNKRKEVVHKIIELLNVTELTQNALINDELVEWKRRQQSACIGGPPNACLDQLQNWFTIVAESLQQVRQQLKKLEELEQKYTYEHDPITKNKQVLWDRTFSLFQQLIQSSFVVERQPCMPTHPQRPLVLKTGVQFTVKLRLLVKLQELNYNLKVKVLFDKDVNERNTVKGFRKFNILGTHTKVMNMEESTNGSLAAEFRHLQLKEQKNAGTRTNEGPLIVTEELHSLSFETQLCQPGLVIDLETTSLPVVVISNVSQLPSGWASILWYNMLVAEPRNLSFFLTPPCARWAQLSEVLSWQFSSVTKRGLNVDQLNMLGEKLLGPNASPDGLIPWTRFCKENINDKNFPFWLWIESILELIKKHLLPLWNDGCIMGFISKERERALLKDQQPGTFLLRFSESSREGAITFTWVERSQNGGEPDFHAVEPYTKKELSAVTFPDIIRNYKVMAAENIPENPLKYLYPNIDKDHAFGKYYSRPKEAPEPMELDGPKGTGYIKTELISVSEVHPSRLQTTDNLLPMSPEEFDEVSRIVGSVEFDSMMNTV
UniProt Q9NZC2, residues 19-230: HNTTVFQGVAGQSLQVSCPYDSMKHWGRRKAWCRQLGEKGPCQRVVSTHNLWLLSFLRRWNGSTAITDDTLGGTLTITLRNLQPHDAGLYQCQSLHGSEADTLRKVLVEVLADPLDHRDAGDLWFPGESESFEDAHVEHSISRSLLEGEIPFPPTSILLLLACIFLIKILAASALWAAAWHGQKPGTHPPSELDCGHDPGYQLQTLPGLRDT
UniProt P19474: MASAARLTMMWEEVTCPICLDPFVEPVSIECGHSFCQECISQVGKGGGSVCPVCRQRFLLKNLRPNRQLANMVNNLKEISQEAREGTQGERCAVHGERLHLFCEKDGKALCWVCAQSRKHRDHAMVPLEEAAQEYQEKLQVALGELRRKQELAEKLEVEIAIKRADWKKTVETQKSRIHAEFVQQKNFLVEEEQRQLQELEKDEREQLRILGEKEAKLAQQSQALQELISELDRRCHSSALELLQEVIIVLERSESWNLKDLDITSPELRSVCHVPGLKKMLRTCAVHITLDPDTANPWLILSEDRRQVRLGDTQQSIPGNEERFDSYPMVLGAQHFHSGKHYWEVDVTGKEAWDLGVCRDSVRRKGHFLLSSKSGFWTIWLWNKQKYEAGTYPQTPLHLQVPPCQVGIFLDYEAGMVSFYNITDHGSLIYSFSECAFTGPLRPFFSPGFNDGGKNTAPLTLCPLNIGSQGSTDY

## Myc-TRIM21 (from UniProt P19474 1-475) (enzyme)
[1]
  binding: binds

## STAT1 (partner of GST-TREM2 in the GST pull-down) (from UniProt P42224 1-750)
GST-TREM2
  binding: binds

## STAT1 truncation mutant, SH2 domain (577-683 aa) (from UniProt P42224) (domain or fragment)
Flag-TREM2
  binding: binds

From publication PMC12627648
